Reference: US9241976B2, “Use of HDL-related molecules to treat and prevent proinflammatory conditions” (THE REGENTS OF THE UNIVERSITY OF CALIFORNIA, priority 2011, dated 2016)
At least one structure is not confirmed: it was looked up by name or label, or the drawing left a doubt. Peptide text beside a SMILES is read from it.

Tested on: CT26 cells
Assay: CT26 cell viability, MTS assay
Settings: Example 3, 10 μg/ml, 48 hours

How did the “Cell viability reduced by, compared with control” value turn out when `CC(=O)N[C@@H](CC(C)C)C(=O)N[C@@H](CCCNC(=N)N)C(=O)N[C@@H](CCCCN)C(=O)N[C@@H](CC(C)C)C(=O)N[C@@H](CCCNC(=N)N)C(=O)N[C@@H](CCCCN)C(=O)N[C@@H](CCCNC(=N)N)C(=O)N[C@@H](CC(C)C)C(=O)N[C@@H](CC(C)C)C(=O)N[C@@H](CCCNC(=N)N)C(=O)N[C@@H](CC(=O)O)C(=O)N[C@@H](Cc1c[nH]c2ccccc12)C(=O)N[C@@H](CC(C)C)C(=O)N[C@@H](CCCCN)C(=O)N[C@@H](C)C(=O)N[C@@H](Cc1ccccc1)C(=O)N[C@@H](Cc1ccc(O)cc1)C(=O)N[C@@H](CC(=O)O)C(=O)N[C@@H](CCCCN)C(=O)N[C@H](C(=O)NC(C)(C)C(=O)N[C@@H](CCC(=O)O)C(=O)N[C@@H](CCCCN)C(=O)N[C@@H](CC(C)C)C(=O)N[C@@H](CCCCN)C(=O)N[C@@H](CCC(=O)O)C(=O)NC(C)(C)C(=O)N[C@@H](Cc1ccccc1)C(N)=O)C(C)C` [28AA-2, LRKLRKRLLRDWLKAFYDKV-Aib-E-K-L-K-E-Aib-F] (HELM PEPTIDE1{[ac].L.R.K.L.R.K.R.L.L.R.D.W.L.K.A.F.Y.D.K.V.[Aib].E.K.L.K.E.[Aib].F.[am]}$$$$V2.0; N-terminus and C-terminus assumed) was run?
Its value is 64%.
